The inconclusive results got no clear call from the source; some entries with a clear call stand among them for comparison. A potency beside an inconclusive call is a rough fit, not a confirmed value. Calls of active or inactive are those of the source. Rule for the calls: active = hit-call score of the fitted dose curve at least 0.9, where 1 is the maximum; inconclusive = response in the unintended direction; inactive = score below 0.9.
Target: human SRC Proto-Oncogene, Non-receptor Tyrosine Kinase (SRC), SRC (gene 6714) (UniProt P12931)
Assay: NVS_ENZ_hSRC: NovaScreen (NVS) Enzymatic Assay for human SRC Proto-Oncogene, Non-receptor Tyrosine Kinase (SRC) (AID 2283223)
How it was run: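 Cell-free kinase activity assay with fluorescent substrate, product separated by electrophoretic mobility shift, read 1 h after dosing. Duplicate single point at 25 uM, then concentration-response up to 50 uM; loss of signal versus DMSO.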

Chains of the proteins cited; added tags and fusions are not shown. Lines headed by an entry give the natural chain unless they say otherwise; changes in a name come on top.
UniProt P04629: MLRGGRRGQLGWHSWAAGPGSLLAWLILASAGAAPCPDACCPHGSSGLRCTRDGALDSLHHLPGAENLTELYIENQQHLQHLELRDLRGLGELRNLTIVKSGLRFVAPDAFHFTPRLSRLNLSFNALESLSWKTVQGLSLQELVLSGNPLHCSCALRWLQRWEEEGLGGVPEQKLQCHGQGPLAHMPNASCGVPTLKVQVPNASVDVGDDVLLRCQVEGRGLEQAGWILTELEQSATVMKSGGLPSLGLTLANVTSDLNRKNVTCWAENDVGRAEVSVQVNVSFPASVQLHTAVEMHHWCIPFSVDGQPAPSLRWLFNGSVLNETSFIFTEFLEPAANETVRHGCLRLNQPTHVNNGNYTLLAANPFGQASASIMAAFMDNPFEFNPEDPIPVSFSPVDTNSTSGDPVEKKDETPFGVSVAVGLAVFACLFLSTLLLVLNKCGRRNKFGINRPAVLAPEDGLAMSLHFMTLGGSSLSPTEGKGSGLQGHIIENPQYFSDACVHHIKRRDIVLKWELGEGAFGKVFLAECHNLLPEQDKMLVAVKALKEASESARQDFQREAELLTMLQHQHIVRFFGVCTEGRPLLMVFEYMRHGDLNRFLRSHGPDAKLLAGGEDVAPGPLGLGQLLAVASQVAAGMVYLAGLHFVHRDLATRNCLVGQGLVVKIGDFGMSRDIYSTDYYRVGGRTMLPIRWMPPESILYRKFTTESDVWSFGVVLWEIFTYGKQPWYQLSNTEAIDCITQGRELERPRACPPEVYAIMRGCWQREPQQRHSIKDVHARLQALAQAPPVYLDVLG

Compound	AC50	outcome
O=C(N[C@H]1CN2CCC1CC2)c1ccc2c(c1)OCCO2	inconclusive: 0.195 µM	
CNC(=S)S		inactive
CCCN(CCC)c1c([N+](=O)[O-])cc(S(N)(=O)=O)cc1[N+](=O)[O-]	inconclusive: 26.4 µM	
Oc1ccc(Cl)cc1Cc1ccccc1		inactive
CC1=C2C[C@H]3[C@@H](CC=C4C[C@@H](O)CC[C@@]43C)[C@@H]2CC[C@]12O[C@@H]1C[C@H](C)CN[C@H]1[C@H]2C		inactive

Target: human Tropomyosin Receptor Kinase A (TRKA), NTRK1 (gene 4914) (UniProt P04629)
Assay: NVS_ENZ_hTrkA: NovaScreen (NVS) Enzymatic Assay for human Tropomyosin Receptor Kinase A (TRKA) (AID 2283224)
How it was run: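 Recombinant human TrkA activity read after 1 h by fluorescence with electrophoretic mobility shift separating substrate and product. Primary screen in duplicate at 25 uM; actives were rerun in concentration-response up to 50 uM. Loss of signal versus DMSO.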

Compound	AC50	outcome
O=C(N[C@H]1CN2CCC1CC2)c1ccc2c(c1)OCCO2	inconclusive: 0.0693 µM	
COc1nc(NC(C)C)nc(NC(C)C)n1	inconclusive: 25 µM	
CCCN(CCC)c1c([N+](=O)[O-])cc(S(N)(=O)=O)cc1[N+](=O)[O-]		inactive
Oc1ccc(Cl)cc1Cc1ccccc1	active: 9.39 µM	
CC(C)(C)OOC(C)(C)C	inconclusive: 3.97 µM	
CC1=C2C[C@H]3[C@@H](CC=C4C[C@@H](O)CC[C@@]43C)[C@@H]2CC[C@]12O[C@@H]1C[C@H](C)CN[C@H]1[C@H]2C		inactive
N#Cc1cccnc1	inconclusive: 5.56 µM	
CCNS(=O)(=O)C(F)(F)C(F)(F)C(F)(F)C(F)(F)C(F)(F)C(F)(F)C(F)(F)C(F)(F)F		inactive
CC(C)C(=O)OCC(C)(C)C(OC(=O)C(C)C)C(C)C (centres undefined)	inconclusive: 25 µM	

From PubChem BioAssay (EPA / NIEHS)
